{"source": "paper PMC7988011", "about": "“NAC blocks Cystatin C amyloid complex aggregation in a cell system and in skin of HCCAA patients” (Nature Communications, 2021)", "key": {"[1]": {"target": "L68Q variant of human cystatin C (human) (UniProt P01034)", "experiment": "SDS-PAGE with Western blot after reduction with DTT; mutant lysates or supernatants treated with DTT (50 mM final concentration in reduced samples); blotted with anti-cystatin C"}, "[2]": {"target": "L68Q variant of human cystatin C (human) (UniProt P01034)", "experiment": "condition: only with 10 mM GSH or NAC in the culture medium; non-reducing SDS-PAGE with Western blot; supernatants of cells cultured with 10 mM GSH or NAC, sampled at 24 and 48 h"}, "[3]": {"target": "L68Q variant of human cystatin C (human) (UniProt P01034)", "experiment": "non-reducing SDS-PAGE with Western blot; lysates (1% NP-40 buffer) and supernatants of stable HEK-293T cells; 2% SDS sample buffer without reducing agent, not heated; NuPAGE 4-12% Bis-Tris; blotted with anti-cystatin C MAB1196"}, "[4]": {"target": "L68Q variant of human cystatin C (human) (UniProt P01034)", "experiment": "sucrose gradient ultracentrifugation; L68Q-hCC cell lysates on 5-30% sucrose step gradients, 16 h, 4 °C, 246,000×g; fractions TCA-precipitated and blotted for cystatin C; untreated, or treated with 10 mM NAC or 5% β-mercaptoethanol"}}, "note": "Results are given in words; binding and its absence hold for the method and conditions named. Some results given as binding are weak or reduced against the parent protein; the word gives no strength."}
{"binder": "L68Q variant of human cystatin C (natural protein, UniProt P01034 27-146, looked up, Vector pBABE-CMV-Puro; also called L68Q-hCC; hCC L68Q) SSPGKPPRLVGGPMDASVEEEGVRRALDFAVGEYNKASNDMYHSRALQVVRARKQIVAGVNYFLDVEQGRTTCTKTQPNLDNCPFHDQPHLKRKAFCSFQIYAVPWQGTMTLSKSTCQDA", "values": [{"measurement": "binding", "setting": "[1]", "value": "no binding (condition: with DTT)"}, {"measurement": "binding", "setting": "[2]", "value": "no binding"}, {"measurement": "binding", "setting": "[3]", "value": "binds"}, {"measurement": "binding", "setting": "[4]", "value": "binds"}]}
